Article PMC12717121, “ABA-independent PP2C-binding in PYLs traces to bacterial origins and persists in land plants” (Nature Communications, 2025)
Results are given in words; binding and its absence hold for the method and conditions named. Binding can be weak; no strength is given. For part of these data: Where a sequence is shown, tags or fusion partners need not be part of it.

The chains behind the UniProt entries cited, without tags or fusion partners. Where a name states a change or a piece, a line headed by the entry shows the natural chain unless it says otherwise.
UniProt P49597, whole entry, stated change not applied: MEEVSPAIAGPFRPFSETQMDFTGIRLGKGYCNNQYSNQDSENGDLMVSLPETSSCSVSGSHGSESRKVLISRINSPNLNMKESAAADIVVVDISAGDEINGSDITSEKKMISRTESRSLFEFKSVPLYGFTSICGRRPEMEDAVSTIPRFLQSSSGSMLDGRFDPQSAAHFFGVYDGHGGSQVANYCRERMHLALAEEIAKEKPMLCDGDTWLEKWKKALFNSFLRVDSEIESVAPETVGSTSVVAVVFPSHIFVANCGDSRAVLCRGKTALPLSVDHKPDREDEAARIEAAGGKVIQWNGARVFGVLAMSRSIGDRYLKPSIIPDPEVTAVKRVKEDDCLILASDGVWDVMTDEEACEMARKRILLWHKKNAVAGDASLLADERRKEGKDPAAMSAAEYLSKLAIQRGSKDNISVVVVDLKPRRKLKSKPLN

Experiments:
Test in all cases: two-hybrid; Matchmaker GAL4 Two-Hybrid System, yeast strain Y2HGold co-transformed with paired constructs; growth on selective SD/-Leu-Trp-His (or -LWHA) media without or with 10 µM ABA
[1] = target: AtABI1 (Arabidopsis clade A PP2C), two-hybrid fusion (Arabidopsis) (UniProt P49597)
[2] = target: T1, HAB2 (Arabidopsis clade A PP2C), two-hybrid fusion (Arabidopsis) (UniProt Q9LNP9)
T1 sequence: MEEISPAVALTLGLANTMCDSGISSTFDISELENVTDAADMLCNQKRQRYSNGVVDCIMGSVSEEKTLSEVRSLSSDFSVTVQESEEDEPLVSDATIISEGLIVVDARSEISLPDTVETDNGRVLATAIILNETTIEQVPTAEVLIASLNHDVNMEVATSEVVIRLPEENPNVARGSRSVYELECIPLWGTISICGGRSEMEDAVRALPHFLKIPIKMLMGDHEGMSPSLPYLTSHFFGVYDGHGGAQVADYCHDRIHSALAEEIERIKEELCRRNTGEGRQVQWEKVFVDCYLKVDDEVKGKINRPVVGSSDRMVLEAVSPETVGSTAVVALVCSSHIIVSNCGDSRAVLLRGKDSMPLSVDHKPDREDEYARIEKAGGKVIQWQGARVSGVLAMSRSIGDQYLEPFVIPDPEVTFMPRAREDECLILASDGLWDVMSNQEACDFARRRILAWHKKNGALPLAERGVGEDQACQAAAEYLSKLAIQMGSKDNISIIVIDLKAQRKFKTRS

[3] = target: T2, PP2CA (Arabidopsis clade A PP2C), two-hybrid fusion (Arabidopsis) (UniProt P49598)
T2 sequence: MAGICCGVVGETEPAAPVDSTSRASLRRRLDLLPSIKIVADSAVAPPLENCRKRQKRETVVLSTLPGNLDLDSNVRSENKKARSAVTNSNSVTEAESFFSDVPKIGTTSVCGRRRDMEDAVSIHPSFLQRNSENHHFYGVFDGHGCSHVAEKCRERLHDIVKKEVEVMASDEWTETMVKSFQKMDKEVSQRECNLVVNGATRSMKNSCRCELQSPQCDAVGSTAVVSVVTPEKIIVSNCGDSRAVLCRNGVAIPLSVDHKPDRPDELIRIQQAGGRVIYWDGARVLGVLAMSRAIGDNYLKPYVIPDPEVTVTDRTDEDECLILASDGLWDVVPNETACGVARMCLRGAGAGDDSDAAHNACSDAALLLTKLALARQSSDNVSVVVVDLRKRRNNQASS

Measured: binding

Paraburkholderia rhynchosiae PYL (PrPYL) (from UniProt A0A2N7VMU2)
binds weakly: all assays above
